Measurements published in article doi:10.1101/2021.12.06.471409.
No constants are given. Whether binding was seen depends on the method and setting. Binding seen in cells or lysates may run through a third protein. Some results given as binding are weak or reduced against the parent protein; the word gives no strength. Tags and fused reporters may be left off the sequences shown.

Amino acid sequences for entries named in this document (tags omitted).
UniProt Q96S21, whole entry: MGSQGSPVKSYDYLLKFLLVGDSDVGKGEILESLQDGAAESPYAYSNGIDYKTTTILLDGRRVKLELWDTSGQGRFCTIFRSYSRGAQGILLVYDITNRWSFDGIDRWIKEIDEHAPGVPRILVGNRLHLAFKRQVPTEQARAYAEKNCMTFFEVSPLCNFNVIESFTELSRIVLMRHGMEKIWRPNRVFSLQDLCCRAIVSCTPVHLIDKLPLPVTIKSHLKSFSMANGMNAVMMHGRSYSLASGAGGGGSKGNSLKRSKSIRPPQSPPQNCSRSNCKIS

Legend:
FLAG-ANKRD28 (human) = target: T1, FLAG-ANKRD28 (human) (UniProt O15084); experiment: co-IP
T1 sequence: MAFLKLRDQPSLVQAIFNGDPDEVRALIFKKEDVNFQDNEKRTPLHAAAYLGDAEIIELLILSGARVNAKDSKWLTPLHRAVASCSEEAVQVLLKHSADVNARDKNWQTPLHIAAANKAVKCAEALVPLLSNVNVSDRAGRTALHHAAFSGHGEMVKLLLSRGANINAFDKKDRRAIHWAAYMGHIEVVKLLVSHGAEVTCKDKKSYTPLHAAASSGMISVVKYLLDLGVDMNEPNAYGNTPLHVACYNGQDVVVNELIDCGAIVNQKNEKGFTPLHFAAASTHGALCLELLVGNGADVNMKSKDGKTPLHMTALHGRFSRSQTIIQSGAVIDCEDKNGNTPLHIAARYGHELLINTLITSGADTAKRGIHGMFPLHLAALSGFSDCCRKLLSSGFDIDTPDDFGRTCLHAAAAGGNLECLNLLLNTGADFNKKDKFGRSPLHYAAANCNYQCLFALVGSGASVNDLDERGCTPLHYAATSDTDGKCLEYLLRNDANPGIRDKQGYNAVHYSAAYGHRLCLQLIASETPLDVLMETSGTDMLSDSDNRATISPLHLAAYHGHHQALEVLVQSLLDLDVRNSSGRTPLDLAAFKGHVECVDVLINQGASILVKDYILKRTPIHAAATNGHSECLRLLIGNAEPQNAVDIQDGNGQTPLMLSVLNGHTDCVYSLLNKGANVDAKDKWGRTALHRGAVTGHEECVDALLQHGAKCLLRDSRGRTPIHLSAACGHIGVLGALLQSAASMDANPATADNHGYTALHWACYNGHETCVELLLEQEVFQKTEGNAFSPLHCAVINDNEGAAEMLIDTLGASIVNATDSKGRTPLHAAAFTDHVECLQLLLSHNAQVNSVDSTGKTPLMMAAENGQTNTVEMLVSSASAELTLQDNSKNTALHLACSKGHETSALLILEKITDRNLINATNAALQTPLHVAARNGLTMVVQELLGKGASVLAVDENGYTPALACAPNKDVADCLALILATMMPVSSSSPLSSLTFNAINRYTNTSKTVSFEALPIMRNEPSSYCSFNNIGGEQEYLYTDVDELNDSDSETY

FLAG-ANKRD44 (human) = target: T2, FLAG-ANKRD44 (human) (UniProt Q8N8A2); experiment: co-IP
T2 sequence: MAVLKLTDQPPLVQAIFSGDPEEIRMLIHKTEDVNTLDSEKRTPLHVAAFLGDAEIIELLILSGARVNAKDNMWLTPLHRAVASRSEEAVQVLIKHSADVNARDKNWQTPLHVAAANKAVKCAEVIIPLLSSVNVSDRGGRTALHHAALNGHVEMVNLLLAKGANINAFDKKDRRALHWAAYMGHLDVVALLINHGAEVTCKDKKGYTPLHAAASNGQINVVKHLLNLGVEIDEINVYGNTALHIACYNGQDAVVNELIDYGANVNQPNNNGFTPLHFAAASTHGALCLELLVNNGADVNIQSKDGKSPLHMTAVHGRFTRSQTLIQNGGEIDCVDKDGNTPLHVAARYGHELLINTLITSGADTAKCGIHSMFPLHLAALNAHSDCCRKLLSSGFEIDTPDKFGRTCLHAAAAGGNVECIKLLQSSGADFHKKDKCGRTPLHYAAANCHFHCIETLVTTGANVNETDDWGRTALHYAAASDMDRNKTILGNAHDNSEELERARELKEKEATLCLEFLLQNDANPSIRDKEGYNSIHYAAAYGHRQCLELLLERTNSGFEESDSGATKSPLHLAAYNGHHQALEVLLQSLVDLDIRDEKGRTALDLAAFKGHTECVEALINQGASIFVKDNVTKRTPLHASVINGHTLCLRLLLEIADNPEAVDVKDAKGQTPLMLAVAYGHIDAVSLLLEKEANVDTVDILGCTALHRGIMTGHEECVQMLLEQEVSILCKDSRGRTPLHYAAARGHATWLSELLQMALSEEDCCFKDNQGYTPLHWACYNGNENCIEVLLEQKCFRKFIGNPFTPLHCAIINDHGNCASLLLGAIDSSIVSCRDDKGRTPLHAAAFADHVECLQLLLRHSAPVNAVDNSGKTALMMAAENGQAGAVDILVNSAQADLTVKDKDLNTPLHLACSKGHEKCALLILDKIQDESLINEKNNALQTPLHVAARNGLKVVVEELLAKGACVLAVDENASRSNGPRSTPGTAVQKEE

binding (FLAG-ANKRD28 (human)): binds | binding (FLAG-ANKRD44 (human)): binds
Substance: HA-Rab40c (from UniProt Q96S21 1-281)
